Measured values from PubChem BioAssay AID652054 (National Center for Advancing Translational Sciences (NCATS), 2013).
The whole screen tested about 360,000 compounds, of which about 9,100 (2.5%) were called active. The shares of active, inactive and inconclusive entries below differ from those in the screen. Cut-off read from the data, not from the text of the source: active = max response below about -50%; inconclusive = no clear call, values can overlap the other calls; inactive = above that.

By UniProt entry, the sequences of proteins in these tests, tags left out.
UniProt P35462, whole entry, looked up: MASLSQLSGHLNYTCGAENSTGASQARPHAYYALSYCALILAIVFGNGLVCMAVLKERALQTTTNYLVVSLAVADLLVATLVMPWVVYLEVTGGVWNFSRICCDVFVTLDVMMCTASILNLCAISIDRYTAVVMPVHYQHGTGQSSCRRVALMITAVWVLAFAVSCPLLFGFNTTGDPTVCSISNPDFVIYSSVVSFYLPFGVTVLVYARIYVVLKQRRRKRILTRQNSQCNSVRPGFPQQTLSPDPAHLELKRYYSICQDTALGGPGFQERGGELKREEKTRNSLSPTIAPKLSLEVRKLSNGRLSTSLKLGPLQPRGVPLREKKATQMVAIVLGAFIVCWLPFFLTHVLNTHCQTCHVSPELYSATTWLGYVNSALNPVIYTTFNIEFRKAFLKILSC

biological target: D(3) dopamine receptor (Homo sapiens) (UniProt P35462); assay: qHTS of D3 Dopamine Receptor Antagonist: qHTS; details: D3R cells, DiscoveRx beta-arrestin luminescence, antagonist mode; active compounds read low
Summary of the method: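 Cells plated overnight at 1500 cells/well, then exposed to library compounds with dopamine controls for 90 minutes at 37 degrees C. DiscoveRx reagent added for 30–60 minutes at room temperature; luminescence read, quantitative HTS format.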
% is set by controls: 0 for no effect and ±100 for the full control effect.

Row | Compound | max response, negative = inhibition
1 | CCCCn1nnc(NC(=O)C(c2ccccc2)c2ccccc2)n1 | inconclusive: -42.2%
2 | CCNS(=O)(=O)c1ccc(NC(=O)c2cc(C(F)(F)F)nn2C)cc1 | inconclusive: -44.1%
3 | O=S(=O)(Nc1ccccc1N1CCOCC1)c1cccs1 | inconclusive: -39.8%
4 | CCCCN(C)CCC(=O)Nc1ccc(F)c(F)c1 | inconclusive: -30.6%
5 | CCOC(=O)c1c(C)[nH]sc1=S | inconclusive: -33.9%
6 | CCOC(=O)C1CCN(Cc2ccc(F)cc2F)CC1 | inconclusive: -38%
7 | Cc1ccc(NC(=O)CSC2=NN3CCCC(=O)N=C3S2)c(C)c1 | inactive: 5.69%
8 | O=C(NC(=S)Nc1ccc(N2CCOCC2)c(Cl)c1)C(c1ccccc1)c1ccccc1 | inconclusive: -35.3%
9 | COC(=O)c1sc2ccccc2c1NC(=O)c1ccc(S(=O)(=O)N2CC(C)CC(C)C2)cc1 (stereo not drawn) | inactive: 3.87%
10 | Cc1cc(C)c2c(CN3CCN(c4ccccc4F)CC3)cc(=O)oc2c1 | inconclusive: -43.1%
11 | CCn1c2ccc(C)cc2c2n[nH]c(=S)nc21 | inconclusive: -34.4%
12 | CCCCc1c(-c2ccc(F)cc2)ncn1CCc1ccccc1OC | inactive: 15%
13 | CC(C)(Oc1ccc(C2CC2(Cl)Cl)cc1)C(=O)O (stereo not drawn) | active: -111%
14 | O=C(Nc1ccc(NC(=O)c2ccccc2Br)cc1)c1ccccc1 | inactive: -4.74%
15 | C[C@H]1CN([C@@H](C)CO)C(=O)Cc2cc(NC(=O)C3CC3)ccc2O[C@H]1CN(C)Cc1ccc(C(=O)O)cc1 | inconclusive: -31.3%
16 | CCOC(=O)c1ccc(N2CSC3=C(C#N)C(c4cccs4)CC(=O)N3C2)cc1 (stereo not drawn) | inconclusive: -35.2%
17 | CCOC(=O)Cn1c(N)c(C(=O)OC)sc1=S | inconclusive: -34.6%
18 | O=C(CCC(=O)OCC(=O)c1ccc(Cl)cc1Cl)Nc1cccc2cccnc12 | inconclusive: -43%
19 | COc1cccc(-c2cnc(C(O)c3cc(Cl)cc(Cl)c3)[nH]2)c1 (stereo not drawn) | inconclusive: -34.3%
20 | CC(C)c1nnc(NC(=O)CCc2ccccc2)s1 | inactive: 3.5%

Row | Compound | max response, negative = inhibition
21 | COc1ccc(-c2[nH]ncc2CN2CCC(O)(c3ccc(Cl)cc3)CC2)cc1 | inconclusive: -35.2%
22 | C=CCNCCCCOc1ccc(C)cc1[N+](=O)[O-] | active: -82.3%
23 | O=C(/C=C/Sc1ccccc1)c1ccccc1 | inactive: -27.9%
24 | CCOc1ccc(CC2S/C(=N/N=C/c3ccco3)NC2=O)cc1 (stereo not drawn) | inactive: 3.02%
25 | CN(CCO)Cc1csc2ccc(Br)cc12 | inconclusive: -41.5%
26 | Cc1ccc(C(c2nnnn2C2CCCCC2)N2CCN3CCCC3C2)cc1 (stereo not drawn) | inconclusive: -32.2%
27 | CCn1cc(/C=C/C(=O)c2ccc(O)cc2)c(C)n1 | inactive: 11%
28 | COc1ccc(CCc2nnc(CCC(=O)N(C)Cc3ccnc4ccccc34)o2)cc1 | inactive: 31.1%
29 | CN(Cc1ccco1)C(=O)C1CCC(=O)N1Cc1ccc(F)cc1 (stereo not drawn) | inconclusive: -31.9%
30 | Cc1[nH]c2c(Cl)cccc2c(=O)c1CN1CCCC1 | active: -65.3%
31 | O=C(Nc1c[nH]c(=O)[nH]c1=O)c1cccc(F)c1 | inconclusive: -31.6%
32 | CCN(CCC(=O)Nc1cc(OC)cc(OC)c1)Cc1ccccc1 | active: -66.8%
33 | S=C1NC[C@H](CC2CCCCC2)N1CC1CCCCC1 | inconclusive: -40.5%
34 | CC(C)n1nnnc1-c1cccc(Cl)c1 | active: -50.6%
35 | CCOC(=O)C1(Cc2cccc(OC)c2)CCN(Cc2ccccc2OC)CC1 | inconclusive: -40%
36 | COCCn1c(=O)[nH]c2cc(C(=O)NCCN3CCN(c4ccccc4)CC3)ccc2c1=O | inconclusive: -43.8%
37 | COc1cccc(NC(=O)c2ccc(NCCCN3CC(C)CC(C)C3)c([N+](=O)[O-])c2)c1 (stereo not drawn) | inconclusive: -34.1%
38 | CCCCCCc1cc2cc(S(=O)(=O)c3ccc(Cl)cc3)c(=O)oc2cc1O | inactive: 18.9%
39 | COc1ccc(N2C(=O)CC(N3CCN(S(=O)(=O)c4c(C)cc(C)cc4C)CC3)C2=O)cc1 (stereo not drawn) | inconclusive: -32.1%
40 | O=C1C=CCC(/C=C/c2ccccc2)O1 (stereo not drawn) | inconclusive: -47.2%

Row | Compound | max response, negative = inhibition
41 | Cc1cc(C(=O)N2CCc3c([nH]c4ccccc34)C2c2c(F)cccc2Cl)no1 (stereo not drawn) | inactive: -7.55%
42 | O=C(Nc1nc2ccccc2n1Cc1ccc(Cl)cc1)c1ccco1 | active: -60%
43 | OC(COCC(F)(F)C(F)(F)C(F)(F)C(F)F)Cn1c2ccccc2c2ccccc21 (stereo not drawn) | inconclusive: -33.5%
44 | COc1nccnc1NS(=O)(=O)c1ccc(N=Cc2c(C)[nH]n(-c3ccccc3)c2=O)cc1 | inconclusive: -39.3%
45 | COc1cc(OC)cc(-c2ncc3ccccn23)c1 | active: -57.7%
46 | Cc1ccc(Nc2nc(N)nc(CN3CCN(Cc4ccc5c(c4)OCO5)CC3)n2)c(C)c1 | inconclusive: -40.2%
47 | COc1ccc(C(c2nnnn2C2CCCC2)N2CCN(C/C=C/c3ccccc3)CC2)cc1 (stereo not drawn) | inconclusive: -37.2%
48 | C=CCOc1ccc2nc(NC(=O)OC)[nH]c2c1 | inconclusive: -33.1%
49 | CN1CCC(C)(C(=O)Nc2cccc(Oc3ccccc3)c2)C1 (stereo not drawn) | inactive: 1.9%
50 | CC(N)c1csc(Nc2ccc(C(=O)NCCO)cc2)n1 (stereo not drawn) | inconclusive: -46.9%
51 | FC(F)(F)c1cccc(N2CCN(CC3CC=CCC3)CC2)c1 (stereo not drawn) | active: -65.6%
52 | Cc1ccc(-c2noc(CSc3nnc(CCc4ccccc4)n3-c3ccccc3)n2)cc1 | inconclusive: -33%
53 | O=C(Cc1ccccc1)NCCc1cccc(Cl)c1 | inconclusive: -34.1%
54 | O=C(Nc1ncc(Cc2cc(Cl)ccc2Cl)s1)c1ccc([N+](=O)[O-])cc1 | inconclusive: -40.5%
55 | CC(=O)c1ccc(N=Cc2c(O)n(-c3cc(Cl)ccc3N3CCOCC3)c(=O)c3ccccc23)cc1 | inactive: 0%
56 | C/C(=N\NC(=O)C1CCCN(S(=O)(=O)c2ccccc2)C1)c1ccccn1 (stereo not drawn) | active: -90.1%
57 | CCOC(=O)Cn1c(S(=O)(=O)Cc2ccccc2)nc2ccccc21 | inconclusive: -33.2%
58 | CN(C)c1ccc(N/C=C/C(=O)c2ccccc2)cc1 | inconclusive: -35.4%

Excerpt, entries 52 to 54
Row | Compound | max response, negative = inhibition
52 | Cc1ccc(-c2noc(CSc3nnc(CCc4ccccc4)n3-c3ccccc3)n2)cc1 | inconclusive: -33%
53 | O=C(Cc1ccccc1)NCCc1cccc(Cl)c1 | inconclusive: -34.1%
54 | O=C(Nc1ncc(Cc2cc(Cl)ccc2Cl)s1)c1ccc([N+](=O)[O-])cc1 | inconclusive: -40.5%

Some values from the list.
max response, negative = inhibition, CC(=O)c1ccc(N=Cc2c(O)n(-c3cc(Cl)ccc3N3CCOCC3)c(=O)c3ccccc23)cc1 is entered as inactive: 0%
max response, negative = inhibition, C/C(=N\NC(=O)C1CCCN(S(=O)(=O)c2ccccc2)C1)c1ccccn1 (stereo not drawn) is entered as active: -90.1%
